No constants are given. Whether binding was seen depends on the method and setting. In cells and extracts the contact can be indirect. Binding can be weak; no strength is given. Where a sequence is shown, tags or fusion partners need not be part of it.
Target: V5-tagged Notch1-ECD deletion mutant Notch1-Δ24–29 (UniProt Q01705)
Experiment: co-IP; Flag-tagged EGFL7 co-expressed with V5-tagged Notch ECDs or Notch1-ECD deletion mutants in HEK293; lysate immunoprecipitated with Immunosorb A overnight at 4 °C; quantitative western blot (Odyssey); n=3

The chains behind the UniProt entries cited, without tags or fusion partners. Where a name states a change or a piece, a line headed by the entry shows the natural chain unless it says otherwise.
UniProt Q01705: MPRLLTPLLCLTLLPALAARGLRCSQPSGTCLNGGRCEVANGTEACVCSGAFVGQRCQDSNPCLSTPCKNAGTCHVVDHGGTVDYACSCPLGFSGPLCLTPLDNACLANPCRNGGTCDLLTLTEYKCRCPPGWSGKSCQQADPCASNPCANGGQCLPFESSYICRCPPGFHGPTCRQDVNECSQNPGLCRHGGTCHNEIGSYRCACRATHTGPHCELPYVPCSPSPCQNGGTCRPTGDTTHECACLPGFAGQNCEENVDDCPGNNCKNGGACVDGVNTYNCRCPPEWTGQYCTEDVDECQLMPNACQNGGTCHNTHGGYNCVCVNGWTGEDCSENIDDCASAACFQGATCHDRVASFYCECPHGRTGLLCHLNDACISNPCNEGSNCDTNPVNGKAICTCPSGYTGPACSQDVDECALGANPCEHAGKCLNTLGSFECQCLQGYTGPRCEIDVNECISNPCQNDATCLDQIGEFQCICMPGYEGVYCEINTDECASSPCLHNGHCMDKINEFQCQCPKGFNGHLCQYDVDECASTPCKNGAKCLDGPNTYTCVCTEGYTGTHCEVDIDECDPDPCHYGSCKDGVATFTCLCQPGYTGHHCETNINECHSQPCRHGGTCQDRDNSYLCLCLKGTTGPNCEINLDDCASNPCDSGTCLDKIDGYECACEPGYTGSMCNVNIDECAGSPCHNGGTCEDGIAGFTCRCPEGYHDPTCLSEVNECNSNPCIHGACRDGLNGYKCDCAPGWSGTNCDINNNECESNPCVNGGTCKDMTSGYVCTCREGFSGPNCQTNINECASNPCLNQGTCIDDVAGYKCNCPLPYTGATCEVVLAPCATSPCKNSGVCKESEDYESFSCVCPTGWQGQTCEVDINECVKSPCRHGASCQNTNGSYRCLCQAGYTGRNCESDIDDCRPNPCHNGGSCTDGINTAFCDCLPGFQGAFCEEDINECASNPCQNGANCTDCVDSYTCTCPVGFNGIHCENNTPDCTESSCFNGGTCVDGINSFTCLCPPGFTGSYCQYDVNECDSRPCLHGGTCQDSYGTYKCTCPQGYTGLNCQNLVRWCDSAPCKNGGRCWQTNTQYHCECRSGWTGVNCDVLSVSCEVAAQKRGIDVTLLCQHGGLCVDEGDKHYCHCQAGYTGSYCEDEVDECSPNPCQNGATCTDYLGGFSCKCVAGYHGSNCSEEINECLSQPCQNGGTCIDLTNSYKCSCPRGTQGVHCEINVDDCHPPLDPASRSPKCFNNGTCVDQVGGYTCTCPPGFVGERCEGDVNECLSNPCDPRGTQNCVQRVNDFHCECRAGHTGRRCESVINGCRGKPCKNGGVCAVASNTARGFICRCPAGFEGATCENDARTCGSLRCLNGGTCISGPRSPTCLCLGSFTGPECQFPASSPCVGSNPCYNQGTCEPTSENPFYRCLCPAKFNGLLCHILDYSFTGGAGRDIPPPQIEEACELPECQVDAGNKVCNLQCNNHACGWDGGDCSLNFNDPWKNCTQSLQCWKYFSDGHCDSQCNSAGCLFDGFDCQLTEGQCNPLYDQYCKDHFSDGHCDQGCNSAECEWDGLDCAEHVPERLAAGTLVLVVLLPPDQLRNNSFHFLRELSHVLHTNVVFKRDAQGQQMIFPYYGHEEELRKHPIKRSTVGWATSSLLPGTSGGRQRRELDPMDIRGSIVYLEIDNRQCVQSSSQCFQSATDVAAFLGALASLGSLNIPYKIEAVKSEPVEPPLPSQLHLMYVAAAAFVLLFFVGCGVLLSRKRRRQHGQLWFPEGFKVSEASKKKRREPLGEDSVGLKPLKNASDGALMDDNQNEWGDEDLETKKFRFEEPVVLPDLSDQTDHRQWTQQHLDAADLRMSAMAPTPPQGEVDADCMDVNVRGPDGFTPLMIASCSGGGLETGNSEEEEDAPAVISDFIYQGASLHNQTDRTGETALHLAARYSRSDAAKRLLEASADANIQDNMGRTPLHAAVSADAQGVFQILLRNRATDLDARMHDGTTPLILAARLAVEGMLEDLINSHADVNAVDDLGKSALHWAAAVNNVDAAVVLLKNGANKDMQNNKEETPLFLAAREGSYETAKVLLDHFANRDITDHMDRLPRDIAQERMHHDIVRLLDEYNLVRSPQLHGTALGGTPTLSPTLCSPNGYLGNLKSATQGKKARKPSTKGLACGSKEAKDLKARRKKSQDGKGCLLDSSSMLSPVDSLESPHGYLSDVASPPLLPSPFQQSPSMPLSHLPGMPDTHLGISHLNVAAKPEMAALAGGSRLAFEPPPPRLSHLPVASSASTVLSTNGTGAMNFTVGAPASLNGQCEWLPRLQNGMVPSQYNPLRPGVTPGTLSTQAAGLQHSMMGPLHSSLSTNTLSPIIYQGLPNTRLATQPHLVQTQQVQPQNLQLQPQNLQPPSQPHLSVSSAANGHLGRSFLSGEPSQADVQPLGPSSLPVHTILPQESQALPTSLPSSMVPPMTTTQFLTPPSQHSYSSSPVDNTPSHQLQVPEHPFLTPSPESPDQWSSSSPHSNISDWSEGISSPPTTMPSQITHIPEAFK

binding: binds
B1: Flag-tagged EGFL7 (epidermal growth factor-like protein 7) (natural protein, UniProt Q9QXT5 22-275, looked up)
chain: EHVYRPSRRVCTVGISGGSISETFVQRVYQPYLTTCDGHRACSTYRTIYRTAYRRSPGVTPARPRYACCPGWKRTSGLPGACGAAICQPPCGNGGSCIRPGHCRCPVGWQGDTCQTDVDECSTGEASCPQRCVNTVGSYWCQGWEGQSPSADGTRCLSKEGPSPVAPNPTAGVDSMAREEVYRLQARVDVLEQKLQLVLAPLHSLASRSTEHGLQDPGSLLAHSFQQLDRIDSLSEQVSFLEEHLGSCSCKKDL
notes: epidermal growth factor-like protein 7 (EGFL7); the same molecule is used here; source: HEK293, transiently transfected, in lysate
